Test results as given in article PMC2852419, “Identification of SOX9 Interaction Sites in the Genome of Chondrocytes”.
The exact form of at least one protein or probe is not confirmed. At least one verdict was read from the data and is not stated in words by the source. Where a protein sequence is shown, tags need not be part of it.

What follows are sequences tested against T1, SOX9 (Homo sapiens) (UniProt P48436) (assay: EMSA). Conditions: 0, 20 or 40 ng SOX9, binds as dimer; pH and temperature not given; recombinant protein; label: 32P-dCTP Klenow fill-in.
T1 sequence (looked up, limits assumed): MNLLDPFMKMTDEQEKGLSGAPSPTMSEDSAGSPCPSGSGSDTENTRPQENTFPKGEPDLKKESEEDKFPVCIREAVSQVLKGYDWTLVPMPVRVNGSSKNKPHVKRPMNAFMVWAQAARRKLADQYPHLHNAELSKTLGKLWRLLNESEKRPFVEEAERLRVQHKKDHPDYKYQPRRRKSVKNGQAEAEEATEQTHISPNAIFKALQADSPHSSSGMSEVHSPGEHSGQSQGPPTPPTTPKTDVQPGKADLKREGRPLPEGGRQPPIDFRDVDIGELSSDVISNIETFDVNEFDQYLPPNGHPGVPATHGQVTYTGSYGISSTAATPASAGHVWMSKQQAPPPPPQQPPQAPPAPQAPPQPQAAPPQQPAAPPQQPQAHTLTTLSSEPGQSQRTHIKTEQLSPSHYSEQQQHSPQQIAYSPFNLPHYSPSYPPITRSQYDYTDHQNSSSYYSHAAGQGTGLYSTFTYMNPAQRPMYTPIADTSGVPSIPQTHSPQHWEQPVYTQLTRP

Sequence | binding result
GGCAGATAGCTGAAGGCCTTCTTTACAGAAACCCAG (double strand) [Col2a1 intron 6 (rat)] | binds

Same assay, conditions: 0, 20 or 40 ng SOX9; pH and temperature not given; recombinant protein; label: 32P-dCTP Klenow fill-in

Sequence | binding result
GGGGGGGACAACAAAGAGAGCATTGTATCACACTCT (double strand) [Col1a1 (rat)] | binds
GGATTTTGCCTGAAAGAACCCTTTAACAAGCAATGA (double strand) [Col11a1 (rat)] | binds
GGCGCTTGAGAAAAGCCCCATTCATGAGAGG (double strand) [Col2a1 intron 1 (mouse)] | binds
GGTTATGAGGATAAAGGAGCCTTGATGGGAAAAAGT (double strand) [Sox5 (rat)] | binds
GGCACTCGAGAAAAGCCCCATTCATGAGAGG (double strand) [Col2a1 intron 1 (rat)] | binds
GGCTGAGACAGGAATGAATCACTTTCCTGGGGGTGG (double strand) [Matrilin4 (rat)] | binds
GGTGGATCAAACCAAAGCAGCCTTCTCCTCCCTCAA (double strand) [Syndecan-3 (rat)] | binds
GGGTCTGGGAACAAGGCAGTTCTTTGATTTGTGGTG (double strand) [Cdrap (rat)] | binds
GGCCCTCCCGACAAAGCACGCCTTGTATCCCCCACC (double strand) [Col11a2 (rat)] | binds
GGGATGCCCGCTAACGGCTCACTTTTAATGTTTCCT (double strand) [Prelp (rat)] | binds
